No constants are given. Whether binding was seen depends on the method and setting. In cells and extracts the contact can be indirect. Binding calls can cover weak binding; strength is not graded here.
Target: T1, phospholamban (mouse (endogenous in mouse heart)) (UniProt P61014)
T1 sequence: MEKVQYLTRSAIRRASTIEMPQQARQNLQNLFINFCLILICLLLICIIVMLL
Experiment: co-IP

Sequences of proteins named here, by UniProt entry; tags and fusion partners are left off. A change or cut given only in a name is not applied to a line headed by its entry.
UniProt P63330: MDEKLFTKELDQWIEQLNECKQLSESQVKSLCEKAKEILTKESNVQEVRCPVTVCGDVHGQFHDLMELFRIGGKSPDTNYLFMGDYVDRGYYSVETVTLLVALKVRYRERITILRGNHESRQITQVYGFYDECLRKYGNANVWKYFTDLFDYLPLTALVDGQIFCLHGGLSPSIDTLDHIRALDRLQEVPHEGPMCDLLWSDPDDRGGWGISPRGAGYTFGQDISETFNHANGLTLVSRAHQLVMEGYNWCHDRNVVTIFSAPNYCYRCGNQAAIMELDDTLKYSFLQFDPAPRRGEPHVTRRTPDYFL

binding	Substance
binds	protein phosphatase 1 (mouse (endogenous in mouse heart)) (enzyme)
binds	protein phosphatase 2A (from UniProt P63330) (enzyme)

Source: publication doi:10.1101/2021.05.11.443650
